PubChem BioAssay AID686938 – Drosophila RNAi Screening Center | 2013
Assay: 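Looking for CRAC channel components and the factors controlling them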 (primary screen). Cells: Drosophila S2R+ cells. Reagents: long dsRNA against Drosophila genes, about 0.25 µg dsRNA per well, roughly 10,000 cells. Duration: 5 days of knock-down before the calcium assay. Conditions: thapsigargin (SERCA pump blocker) to empty calcium stores; entry signal taken 4 min after adding it. Measured: 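Duplicate raw fluo-4 intensities per well from a plate reader, at rest and four minutes after thapsigargin emptied calcium stores; entry-to-rest ratio filled for only some wells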. Scale: calcium entry signal: higher = stronger calcium signal after store depletion; entry to resting ratio: higher = more calcium entry relative to resting level; resting calcium signal: higher = higher resting calcium signal. Active means: 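Called when the plate z-score of the entry-to-rest ratio, mean of duplicates, falls below −3; wells with low overall dye signal (Fmax z below −2) or more than five off-targets excluded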. Meaning of the calls: active = strongly reduced calcium entry; inactive = no strong reduction.
The screen tested about 23,000 reagents; shown is a random part of those that have a named target and a result. In the full data, 75 (0.33%) got an active call. 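Raw plate signals without normalisation; calls rest on plate z-scores that were not deposited; ratio present for only 364 wells.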 Unmarked entries are inactive. Names joined by + are all predicted targets of the reagent. The record does not give: the dose of the treatment.

gene | dsRNA | calcium entry signal, replicate 1 (fluorescence units) | calcium entry signal, replicate 2 (fluorescence units) | entry to resting ratio | resting calcium signal, replicate 1 (fluorescence units) | resting calcium signal, replicate 2 (fluorescence units)
norpA | DRSC18806 | 3.85e7 | 3.95e7 | – | 1.88e7 | 1.94e7
wun2 | DRSC07566 | 3.96e7 | 4.10e7 | – | 1.85e7 | 1.67e7
CG32267 | DRSC21561 | 4.45e7 | 4.08e7 | – | 2.78e7 | 1.93e7
CG14459 | DRSC11719 | 2.12e7 | 3.78e7 | – | 1.50e7 | 2.04e7
CG14459 | DRSC23039 | 3.15e7 | 3.72e7 | – | 1.54e7 | 1.62e7
JMJD7 | DRSC09703 | 7.28e7 | 3.06e7 | – | 3.04e7 | 1.62e7
CG32017 | DRSC17183 | 5.76e7 | 3.34e7 | – | 2.66e7 | 1.46e7
SmydA-6 | DRSC07341 | 3.20e7 | 4.03e7 | – | 1.49e7 | 1.80e7
Met75Ca + Met75Cb | DRSC09549 | 4.57e7 | 3.36e7 | – | 2.21e7 | 1.74e7
Met75Ca + Met75Cb | DRSC11221 | 3.40e7 | 5.13e7 | – | 1.78e7 | 1.92e7
Hmr | DRSC17740 | 3.42e7 | 4.51e7 | – | 1.64e7 | 2.28e7
CG33191 + Pif1B | DRSC12706 | 4.10e7 | 4.53e7 | – | 1.92e7 | 2.28e7
CG10543 | DRSC04081 | 4.94e7 | 6.05e7 | – | 2.35e7 | 2.62e7
CG10543 | DRSC23102 | 5.33e7 | 3.72e7 | – | 2.50e7 | 1.56e7
CG8303 | DRSC07140 | 4.82e7 | 6.62e7 | – | 2.11e7 | 3.16e7
CG14380 | DRSC14840 | 2.62e7 | 5.37e7 | – | 1.34e7 | 7.77e7
blp | DRSC15757 | 3.09e7 | 2.40e7 | – | 1.42e7 | 6.22e7
glo | DRSC16145 | 4.87e7 | 4.26e7 | – | 1.98e7 | 1.90e7
Muc14A | DRSC23264 | 2.94e7 | 3.01e7 | – | 1.40e7 | 1.27e7
DCTN3-p24 | DRSC04592 | 3.46e7 | – | – | 1.86e7 | –
CG11267 | DRSC09833 | 2.11e7 | 2.93e7 | – | 1.12e7 | 1.19e7
Argk1 | DRSC08959 | 3.96e7 | 4.14e7 | – | 2.18e7 | 2.04e7
Argk1 | DRSC09668 | 3.51e7 | 3.76e7 | – | 1.92e7 | 1.55e7
Argk1 | DRSC10460 | 4.08e7 | 2.81e7 | – | 2.75e7 | 1.32e7
Argk1 | DRSC21558 | 3.75e7 | 3.44e7 | – | 2.30e7 | 1.73e7
Argk1 | DRSC22665 | 2.41e7 | 2.62e7 | – | 1.29e7 | 1.12e7
pb | DRSC12409 | 2.23e7 | 4.38e7 | – | 1.14e7 | 1.94e7
pb | DRSC12629 | 5.39e7 | 3.93e7 | – | 2.92e7 | 2.10e7
CG40486 | DRSC20619 | 5.13e7 | 4.30e7 | – | 2.20e7 | 2.02e7
cerv | DRSC19681 | 2.62e7 | 3.29e7 | – | 1.38e7 | 1.49e7
Tsp97E | DRSC16019 | 2.87e7 | 3.94e7 | – | 1.41e7 | 2.02e7
CG14054 | DRSC17909 | 4.86e7 | 6.40e7 | 1.9 | 2.50e7 | 2.55e7
CstF50 | DRSC15434 | 2.55e7 | 3.25e7 | – | 1.17e7 | 1.54e7
CG5973 | DRSC02918 | 4.34e7 | – | – | 2.16e7 | –
CG12935 | DRSC06248 | 4.89e7 | 4.52e7 | – | 2.17e7 | 2.05e7
CG31121 | DRSC15361 | 3.56e7 | 5.52e7 | – | 1.73e7 | 2.43e7
CG31121 | DRSC15363 | 3.90e7 | 4.86e7 | – | 1.90e7 | 2.19e7
CG31055 | DRSC13832 | 3.35e7 | 2.65e7 | – | 1.58e7 | 1.39e7
ens | DRSC08454 | 4.82e7 | 3.78e7 | – | 3.25e7 | 1.63e7
Alms1b + Alms1a | DRSC18559 | 3.76e7 | 3.83e7 | – | 1.80e7 | 1.86e7
CG1161 | DRSC12180 | 1.41e7 | 1.93e7 | – | 8.79e6 | 1.24e7
CG8173 | DRSC20088 | 3.12e7 | 3.05e7 | – | 1.55e7 | 1.39e7
Pgm2b | DRSC05978 | 4.29e7 | 4.55e7 | – | 1.82e7 | 2.07e7
CG30122 | DRSC06776 | 4.38e7 | 3.76e7 | – | 2.18e7 | 1.81e7
CG30122 | DRSC06935 | 5.12e7 | 5.56e7 | – | 2.43e7 | 2.62e7
CG18249 | DRSC15318 | 2.62e7 | 3.46e7 | – | 1.19e7 | 1.43e7
Cpr76Bb | DRSC11061 | 2.73e7 | 4.58e7 | – | 1.33e7 | 1.79e7
Cpr76Bb | DRSC22870 | 1.71e7 | 3.30e7 | – | 9.87e6 | 1.43e7

Just “resting calcium signal, replicate 1 (fluorescence units)” (13 entries from above):
Argk1 [DRSC09668]: 1.92e7
Argk1 [DRSC10460]: 2.75e7
Argk1 [DRSC21558]: 2.30e7
Argk1 [DRSC22665]: 1.29e7
pb [DRSC12409]: 1.14e7
pb [DRSC12629]: 2.92e7
CG40486 [DRSC20619]: 2.20e7
cerv [DRSC19681]: 1.38e7
Tsp97E [DRSC16019]: 1.41e7
CG14054 [DRSC17909]: 2.50e7
CstF50 [DRSC15434]: 1.17e7
CG5973 [DRSC02918]: 2.16e7
CG12935 [DRSC06248]: 2.17e7

More entries:
gene | dsRNA | calcium entry signal, replicate 1 (fluorescence units) | calcium entry signal, replicate 2 (fluorescence units) | entry to resting ratio | resting calcium signal, replicate 1 (fluorescence units) | resting calcium signal, replicate 2 (fluorescence units)
CG9752 | DRSC04562 | 4.31e7 | – | – | 2.16e7 | –
dx | DRSC18767 | 2.84e7 | 4.42e7 | – | 1.43e7 | 2.15e7
CG10562 | DRSC14257 | 3.20e7 | 3.03e7 | – | 1.39e7 | 1.51e7
Rab1 | DRSC16808 | 1.40e7 (active) | 1.87e7 | – | 1.07e7 | 1.17e7
CG7173 | DRSC11812 | 2.67e7 | 3.65e7 | – | 1.40e7 | 2.72e7
CG7173 | DRSC23252 | 3.64e7 | 3.35e7 | – | 2.04e7 | 1.57e7
CG8010 | DRSC20072 | 3.55e7 | 4.45e7 | – | 1.72e7 | 1.88e7
CG8064 | DRSC16373 | 2.87e7 | 2.84e7 | – | 1.43e7 | 1.42e7
CG42709 | DRSC10277 | 4.95e7 | 3.85e7 | – | 3.31e7 | 1.68e7
CG5065 | DRSC06912 | 5.63e7 | 6.08e7 | – | 2.43e7 | 3.00e7
ND5 (retired record) | DRSC21281 | 4.98e7 | 4.63e7 | – | 2.45e7 | 1.98e7
CG17896 | DRSC18502 | 5.51e7 | 5.17e7 | – | 2.31e7 | 2.33e7
Dlic | DRSC19824 | 2.78e7 | 3.43e7 | – | 1.33e7 | 1.58e7
Isha | DRSC04456 | 3.93e7 | – | – | 2.12e7 | –
CG7798 | DRSC07047 | 4.62e7 | 4.01e7 | – | 1.87e7 | 1.85e7
CG11694 | DRSC14354 | 3.67e7 | 3.49e7 | – | 1.85e7 | 1.67e7
Mbs | DRSC09414 | 4.24e7 | 3.77e7 | – | 1.76e7 | 1.82e7
Mbs | DRSC10525 | 4.31e7 | 4.78e7 | – | 2.01e7 | 3.28e7
Mbs | DRSC10553 | 4.57e7 | 2.81e7 | – | 1.99e7 | 1.44e7
CG8004 | DRSC10947 | 3.65e7 | 4.58e7 | – | 1.71e7 | 3.11e7
CG13603 | DRSC14606 | 3.01e7 | 2.67e7 | – | 1.37e7 | 1.19e7
Pmm2 | DRSC09780 | 2.26e7 | 2.48e7 | – | 1.24e7 | 1.22e7
Larp7 | DRSC18798 | 3.65e7 | 9.01e7 | – | 1.70e7 | 3.31e7
Mpv17 | DRSC17198 | 3.89e7 | 5.74e7 | 2 | 1.98e7 | 2.27e7
Prim2 | DRSC11610 | 3.82e7 | 4.68e7 | – | 1.99e7 | 3.56e7
Gen | DRSC09679 | 5.19e7 | 4.89e7 | – | 3.03e7 | 2.05e7
MED30 | DRSC08516 | 4.29e7 | 3.15e7 | – | 2.25e7 | 1.73e7
MED30 | DRSC23135 | 2.67e7 | 3.97e7 | – | 1.23e7 | 1.62e7
